Data as given in publication PMC4161432.
Results are given in words; binding and its absence hold for the method and conditions named. Binding seen in cells or lysates may run through a third protein. Some entries that bind do so weakly or less than the wild type.

Chains of the proteins cited; added tags and fusions are not shown.
UniProt Q86XR7: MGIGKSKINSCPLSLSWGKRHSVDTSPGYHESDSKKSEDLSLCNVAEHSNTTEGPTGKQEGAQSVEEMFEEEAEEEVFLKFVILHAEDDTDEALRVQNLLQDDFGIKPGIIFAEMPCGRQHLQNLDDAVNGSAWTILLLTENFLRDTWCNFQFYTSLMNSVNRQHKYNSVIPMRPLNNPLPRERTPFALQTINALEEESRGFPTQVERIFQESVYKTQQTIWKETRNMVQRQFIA
UniProt Q99836: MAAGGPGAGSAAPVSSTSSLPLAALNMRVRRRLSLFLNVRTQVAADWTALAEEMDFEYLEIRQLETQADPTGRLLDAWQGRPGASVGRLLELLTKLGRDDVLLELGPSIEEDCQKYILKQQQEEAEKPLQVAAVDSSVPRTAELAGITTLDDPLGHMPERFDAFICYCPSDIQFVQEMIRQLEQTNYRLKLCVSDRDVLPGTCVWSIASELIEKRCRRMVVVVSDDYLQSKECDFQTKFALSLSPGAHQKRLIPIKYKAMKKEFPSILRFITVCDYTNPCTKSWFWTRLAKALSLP

Columns and labels:
[1] = target: Flag-tagged TRAM (TRIF related adaptor molecule) (UniProt Q86XR7); assay: condition: only unstimulated cells (without the TLR7 ligand CLO97); co-IP; HEK293-TLR7 cells co-transfected with Flag-TRAM and Myc-MyD88, left unstimulated (no CLO97); lysis in low stringency buffer; IP with anti-Flag M2 and Protein A/G beads at 4°C; immunoblot
[2] = target: Flag-tagged TRAM (TRIF related adaptor molecule) (UniProt Q86XR7); assay: co-IP; HEK293-TLR7 cells co-transfected with Flag-TRAM and Myc-MyD88, stimulated with CLO97 (5 µg/ml) for 15, 30 and 60 min; lysis in low stringency buffer (50 mM HEPES pH 7.5, 150 mM NaCl, 1% NP-40, 0.5% sodium deoxycholate); IP with anti-Flag M2 and Protein A/G beads at 4°C; immunoblot

binding [1]: no binding | binding [2]: binds
Substance: Myc-tagged MyD88 (from UniProt Q99836 1-296)
